Test results from paper PMC11898282.
Results are given in words; binding and its absence hold for the method and conditions named. Binding seen in cells or lysates may run through a third protein. Here binding means that the protein was enriched with, or labelled near, the bait; the list need not be complete. Tags and fused reporters may be left off the sequences shown.

Chains of the proteins cited; added tags and fusions are not shown.
UniProt P67809: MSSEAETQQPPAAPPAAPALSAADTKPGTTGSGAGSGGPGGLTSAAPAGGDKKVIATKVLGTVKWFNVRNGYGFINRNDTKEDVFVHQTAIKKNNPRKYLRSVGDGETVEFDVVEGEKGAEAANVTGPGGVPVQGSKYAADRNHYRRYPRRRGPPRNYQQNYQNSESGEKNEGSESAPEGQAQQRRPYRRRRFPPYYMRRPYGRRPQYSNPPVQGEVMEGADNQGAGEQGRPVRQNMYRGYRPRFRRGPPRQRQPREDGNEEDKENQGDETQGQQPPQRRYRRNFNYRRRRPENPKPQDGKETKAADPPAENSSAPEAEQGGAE

Target: T1, Flag-tagged TMBIM1 (transmembrane BAX inhibitor motif-containing 1) (human) (UniProt Q969X1)
T1 sequence: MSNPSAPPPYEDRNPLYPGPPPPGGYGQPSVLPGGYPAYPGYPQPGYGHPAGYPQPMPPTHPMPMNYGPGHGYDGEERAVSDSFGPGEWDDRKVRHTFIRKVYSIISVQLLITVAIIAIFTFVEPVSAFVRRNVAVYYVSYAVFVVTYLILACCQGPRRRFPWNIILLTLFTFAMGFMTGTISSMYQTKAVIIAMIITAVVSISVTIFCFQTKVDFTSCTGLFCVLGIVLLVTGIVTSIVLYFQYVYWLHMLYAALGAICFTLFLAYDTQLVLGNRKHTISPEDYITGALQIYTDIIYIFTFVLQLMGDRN
Test: affinity purification with mass spectrometry; IP with anti-Flag antibody from lysate of CFPAC-1 cells stably overexpressing Flag-TMBIM1, then LC-MS

binding: binds
Substance: Y box binding protein 1 (YBX1) (from UniProt P67809 1-324)
